From article PMC7156728
No constants are given. Whether binding was seen depends on the method and setting. In cells and extracts the contact can be indirect. Here binding means that the protein was enriched with, or labelled near, the bait; the list need not be complete.

Molecular target: T1, C-reactive protein (CRP) (human) (UniProt P02741)
T1 sequence: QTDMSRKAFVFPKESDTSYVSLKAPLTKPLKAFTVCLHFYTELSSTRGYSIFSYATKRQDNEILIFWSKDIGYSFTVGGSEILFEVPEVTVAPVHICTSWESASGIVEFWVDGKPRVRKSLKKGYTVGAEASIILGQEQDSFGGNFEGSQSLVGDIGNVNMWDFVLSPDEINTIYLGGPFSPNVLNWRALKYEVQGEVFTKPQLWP
Assay: affinity purification with mass spectrometry; plasma (hirudin) of one donor with vehicle or 40 µg/ml purified CRP incubated with MSU crystals (90 mg/ml) 45 min at 37 °C; bound proteins eluted in SDS buffer, whole gel lanes digested, LC-MS, MaxQuant; proteins compared with and without CRP; only the target purified

binding	Substance
binds	complement component C1s (human (endogenous in serum and plasma)) (enzyme)
binds	complement component C1r (human (endogenous in serum and plasma)) (enzyme)
